# Data as given in the supplement of paper PMC3334620.
# Over roughly 33,000 sequences, “E-score (-0.5 to 0.5)” has its median near -0.0014; the highest 2% begin near 0.25. Some of the results follow.
# Biological target: T1, Cad1 (UniProt P24813)
# T1 sequence: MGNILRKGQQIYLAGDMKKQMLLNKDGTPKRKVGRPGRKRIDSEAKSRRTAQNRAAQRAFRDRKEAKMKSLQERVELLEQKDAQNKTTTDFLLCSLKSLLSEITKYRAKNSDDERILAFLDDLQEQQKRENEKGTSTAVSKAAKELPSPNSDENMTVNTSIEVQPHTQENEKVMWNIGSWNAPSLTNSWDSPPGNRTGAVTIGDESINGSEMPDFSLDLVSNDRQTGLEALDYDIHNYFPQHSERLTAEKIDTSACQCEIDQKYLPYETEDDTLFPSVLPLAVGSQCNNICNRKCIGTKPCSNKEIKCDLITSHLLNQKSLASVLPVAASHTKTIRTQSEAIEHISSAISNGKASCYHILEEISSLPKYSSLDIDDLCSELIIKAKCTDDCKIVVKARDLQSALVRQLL
# Assay: PBM E-score (8-mer binding enrichment) (E-score (-0.5 to 0.5)); higher = stronger / more preferred TF binding
# Settings: protein concentration: 100 nM; construct: GST-full length
# Procedure, shortened: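 For each ungapped eight-base word taken together with its reverse complement, the Universal PBM Analysis Suite assigned an E-score. Binding data came from GST-tagged yeast transcription factors, applied at about 100-200 nM, on universal all-10-mer Agilent arrays made double-stranded by primer extension. Fluorescent anti-GST marked bound protein, and scans were normalised with masliner.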
row,Sequence,PBM E-score
1,GTCATCTA,0.0267
2,GACATGCC,-0.0147
3,AGAAATCT,0.0393
4,GGGATTAA,0.071
5,ATAAGGAA,-0.0344
6,CAATAGCG,-0.118
7,CTATTAAC,0.141
8,AGCCCTAC,-0.00995
9,GTGTTGCA,0.0674
10,ATCAGCCG,0.0966
11,ACATCCGC,0.00832
12,TGGGAGAA,-0.228
13,ACAGGATG,-0.0633
14,CATCCGAC,0.154
15,ACAGGAGA,0.091
16,ACTCCCAG,-0.0146
17,GGCCTCCC,-0.176
18,ACTCCCAT,-0.055
19,AGGGCCAG,-0.106
20,TGCTTCCA,-0.282
21,ACTGCAGT,0.189
22,CTTCTGGA,-0.161
23,AGAATTCA,0.126
24,ACGAACAT,0.232
25,CGCTGTAA,0.161

# A second format for part of the listing above:
row	Sequence	PBM E-score
16	ACTCCCAG	-0.0146
17	GGCCTCCC	-0.176
18	ACTCCCAT	-0.055
19	AGGGCCAG	-0.106

# Next part.

row,Sequence,PBM E-score
1,ACACATTG,0.105
2,CCGGGACG,-0.0924
3,CATCTCCA,0.09
4,ATTGACTG,-0.0463
5,TTATACAA,0.229
6,ATTTTCGG,0.228
7,CAGCGTGA,0.132
8,AGGACCGA,-0.111
9,AGGATTTA,0.0191
10,ATGTTTAG,0.209
11,TCTCCCAA,-0.215
12,GCTTCACC,-0.0626
13,CTCATCAG,0.192
14,AAGATAAA,0.204
15,AGTGTCAT,0.103
16,CCTCTATC,-0.08
17,AAGCGGTA,0.0576
18,ACGCGAGG,0.0276
19,ACTTGGAG,-0.168
20,AGTCGACT,0.287
21,ACAGATGT,-0.113
22,GCGCGCGA,0.265
23,GGTGCGCA,0.128
24,AGGTTTGC,0.0496
25,ACTATGGC,-0.0106

row,Sequence,PBM E-score
1,TATTCAAA,0.206
2,AGTGTGGA,0.0242
3,ATTCGACG,0.112
4,ATACCCAC,0.0116
5,ACATTCCC,0.125
6,GACGAAAC,0.144
7,ATGCTTAC,0.112
8,AACGGTAG,-0.123
9,GCACTGGC,-0.0995
10,GAAAAGCA,0.0851
11,CACCAGAC,0.024
12,CTTCGAAG,0.0574
13,GATCGTGC,0.163
14,GCAAGCAA,0.0279
15,AATTGGAG,-0.0705
16,CCGCCGCC,-0.117
17,ACTCGTCC,-0.177
18,GAGCACAA,0.0177
19,CATGCGAC,0.0827
20,CAAATTTA,0.207
21,CATAACCG,-0.133
22,CCCCGGCC,-0.312
23,ATCTTGTG,-0.0597
24,AAGGAAGT,-0.0479
25,AACAAAGC,0.104

row,Sequence,PBM E-score
1,ATCCTCAG,0.0208
2,CGCCTCGA,0.0464
3,GCAGCATA,0.135
4,ACGCAAAA,0.00524
5,CCCCTACA,-0.26
6,AGTTTCAT,0.147
7,TACAGACA,0.0428
8,CCTTCCGA,-0.0899
9,GGTTTTAC,-0.244
10,TGACGACA,0.202
11,CCCGCGCA,0.106
12,TACATTCA,0.0391
13,CCACCGCA,-0.00127
14,AGAAGCTG,-0.0145
15,ACCTTAGA,0.0001
16,AGTAGAAC,-0.155
17,ACAGATTA,0.00085
18,AGGATGCC,-0.237
19,CTAGAAGC,-0.245
20,CCAGTAGA,-0.0191
21,ATCATAAC,0.273
22,GGATCTTA,-0.0103
23,AGCATTCG,-0.0729
24,ATTGTCCA,0.132
25,AACAATTC,0.038

row,Sequence,PBM E-score
1,AGGTTTAG,-0.145
2,CAAAAAGC,0.193
3,CGCGCGGC,0.261
4,ATCTTAAC,0.216
5,TATCCCGA,0.127
6,CAGGTCTC,-0.164
7,GAATCCCA,0.0207
8,TCGTTCAA,0.0576
9,CTATTAAA,0.00283
10,CCTGGCAC,-0.137
11,AATTAGTG,0.316
12,ATTGCTGC,0.0684
13,CAACCCTC,-0.0405
14,GGTTAACA,0.129
15,CCCGGCTA,-0.235
16,CGGAGTCA,-0.0932
17,AGTATAAC,-0.12
18,CAGGGCCG,-0.00414
19,CACTGGGA,-0.126
20,TAGTTCCA,0.122
21,AATATCTG,-0.00633
22,ATTCTTCA,0.0734
23,AATGGTGC,-0.131
24,AGGGGGGA,-0.328
25,AGCTCCGC,0.0717

# Copied from the list.
# PBM E-score, CGCGCGGC reads 0.261
# PBM E-score, AATATCTG reads -0.00633
# PBM E-score, AGGTTTAG reads -0.145
# PBM E-score, CGGAGTCA reads -0.0932
# PBM E-score, ATTGCTGC reads 0.0684
# PBM E-score, CAAAAAGC reads 0.193

# Following part

row,Sequence,PBM E-score
1,AACAAGAC,0.0975
2,ACTAACGC,0.094
3,CGGTACAC,-0.123
4,GACTGATA,-0.121
5,AACGGCGA,0.153
6,GGGCATCA,-0.201
7,CTGATGTC,0.141
8,ACTGAACC,-0.16
9,TCGGAACA,0.268
10,GGGGCTGA,-0.133
11,ACTCCTAG,-0.105
12,ATGACACC,-0.0294
13,AGAGTCGC,0.0279
14,GAGCGTCC,-0.00901
15,AATGGACG,0.0996
16,CGTAGCCC,-0.125
17,GAAACCGC,0.183
18,AATGTTGG,0.166
19,ATTTAACG,0.158
20,AAGGGCCT,-0.199
21,ATCGATTA,0.275
22,GCACTACA,-0.126
23,ACGTATCT,-0.105
24,CCAATGCC,-0.153
25,CCAGCGGG,-0.121

row,Sequence,PBM E-score
1,ATATGTAG,-0.0656
2,AAAACACG,0.149
3,GCTGGCTA,-0.224
4,AGCTTAAC,0.0304
5,AGTTTTCC,0.121
6,GCAGTAAA,-0.0247
7,ATGCAGAA,0.0628
8,CGAATACA,-0.0779
9,ATATCATG,0.0662
10,CCTTCTAA,-0.149
11,ATGTGCAG,-0.188
12,CCTAGGGC,-0.118
13,ATTATTAC,0.0832
14,CATGAATG,-0.0244
15,AATAGGGG,0.0361
16,CGCAGGAG,-0.101
17,GCCCACAC,-0.0589
18,AAGGTGTC,0.0418
19,ACGGTAGT,0.047
20,CTATGCTC,-0.0378
21,ATTAGGGA,-0.0914
22,AAACGCTG,0.0247
